# Values joined by “and” are separate entries in the source; they are usually repeats but may differ in a detail not shown here. Identical values can stand only once. Screen size: about 300,000 compounds; about 3,700 (1.2%) were called active. Inconclusive results, whose numbers are uncertain, are shown with a selection of clear calls. Calls follow the shape of the full dose curve; tested in HEK293 cells. Where the call is inconclusive, the potency comes from a doubtful curve fit.
# Experiment: qHTS for Inhibitors of binding or entry into cells for Lassa Virus; also: nearly all actives have a fitted effect of over 50% in size
# Settings: Lassa virus pseudotype entry inhibition, cell reporter; activity change, negative = inhibition: at 37.9 µM (top of the series) unless noted
# % is scaled to controls: 0 for no effect and ±100 for the full control effect; potency is read from the fitted curve at half-maximal effect.
SMILES,"activity change, negative = inhibition",Potency
COc1ccc(Oc2nccc(-c3ccc(Cl)cc3)n2)cc1,inactive: -21.3%,–
COc1cccc(OC)c1C(=O)Nc1ccc(C)cc1C(=O)c1ccccc1,–,"inconclusive: 35.5 µM [inhibitor, single point]"
Cc1cc(C)nc(-n2nc(C)cc2NC(=O)CN2CCc3ccccc3C2)n1,–,"inconclusive: 2.91 µM [inhibitor, full curve, poor fit]"
CCCc1ccc(OC(C)C(=O)Nc2sc3c(c2C(=O)OC)CCCCC3)cc1 (stereo not drawn),inactive: -16.9% [at 46.1 µM],–
Cc1ccc(C(=O)Nc2ncc(Cc3ccc(SC(F)F)cc3)s2)cc1,–,"inconclusive: 0.891 µM [inhibitor, full curve]"
CC1CCN(S(=O)(=O)c2ccc3c(c2)oc(=O)n3CC(=O)NC(C)c2ccccc2)CC1 (stereo not drawn),–,"inconclusive: 11.2 µM [inhibitor, single point]"
Cc1ncoc1C(=O)NCCC(c1ccccc1)c1ccccc1,–,"inconclusive: 20 µM [inhibitor, single point]"
COc1ccc(OC)c(-c2csc(NC(=O)Cn3[nH]c(=O)c4ccccc4c3=O)n2)c1,–,"inconclusive: 35.5 µM [inhibitor, single point]"
O=C(CCC(=O)c1cccs1)Nc1ccc(N2CCCCC2)cc1,–,"inconclusive: 12.6 µM [activator, partial curve, poor fit]"
O=C(Nc1nc2c(s1)CCCC2)c1ccc(S(=O)(=O)N2CCCc3ccccc32)cc1,–,"inconclusive: 8.91 µM [inhibitor, partial curve, poor fit]"
Cc1ccc(/C=N/n2cnc3sc(C)c(C)c3c2=O)o1,inactive: -0.755%,–
COc1ccc(OCC(=O)N2CCN(c3nnc(-c4ccccc4)c4ccccc34)CC2)cc1,–,"inconclusive: 23.1 µM [inhibitor, partial curve, poor fit]"
COc1ccc(Br)cc1CNC(=O)CSc1cc(=O)n(C)c2ccccc12,inactive: 14.2% [at 46.1 µM],–
Cc1ccc2nc(/C(C#N)=C/c3ccc(O)c(O)c3)[nH]c2c1,–,"inconclusive: 6.31 µM [activator, partial curve, poor fit]"
Cc1ccc(-n2ncc(C(=O)Nc3ccc4c(c3)OCCO4)c2C2CCN(C(=O)OC(C)(C)C)CC2)cc1,–,"inconclusive: 7.08 µM [inhibitor, partial curve]"
N[C@@H](Cc1ccccc1)C(=O)N1CCC(C(=O)N[C@@H](Cc2c[nH]c3ccccc23)C(=O)O)CC1,inactive: 11.8% [at 46.1 µM],–
O=c1cc(N2CCOCC2)cnn1-c1ccccc1,–,"inconclusive: 31.6 µM [activator, single point]"
COc1ccc(NS(=O)(=O)c2ccc(C)c(C(=O)N(C)Cc3ccc(C)cc3)c2)cc1,–,active: 11.2 µM
CCN1C(=O)c2cccc3c(S(=O)(=O)NCc4ccco4)ccc1c23,inactive: 1.16%,–
Cc1nc2ccccc2nc1N/N=C/c1ccc(O)cc1O,–,"inconclusive: 2 µM [inhibitor, partial curve, poor fit]"
CCC(=Nc1ccc(OC)cc1OC)c1c(O)[nH]c(=O)[nH]c1=O,–,"inconclusive: 10 µM [inhibitor, partial curve, poor fit]"

SMILES,"activity change, negative = inhibition",Potency
CCc1c(C)nc(SCC(=O)N2C(C)CCCC2C)[nH]c1=O (stereo not drawn),–,"inconclusive: 5.62 µM [inhibitor, single point]"
Cc1ccnc(NC(=O)c2ccoc2C)c1,–,"inconclusive: 1.41 µM [activator, partial curve, poor fit]"
COc1ccc(N2CCN(C(=O)CN3CCN(c4nc(-c5ccc(F)cc5)cs4)CC3)CC2)cc1,–,"inconclusive: 10 µM [inhibitor, partial curve, poor fit]"
O=C1OCCC1Sc1nnc(-c2ccc(Cl)cc2Cl)o1 (stereo not drawn),–,"inconclusive: 8.91 µM [inhibitor, partial curve]"
Cc1cccc(C)c1NC(=O)CNC(=O)C(NC(=O)c1ccc(C(C)(C)C)cc1)C(C)C (stereo not drawn),–,"inconclusive: 5.62 µM [activator, single point]"
Cc1cccc(OCc2n(CC(=O)OC3CC(C)CCC3C(C)C)c3ccccc3[n+]2C)c1 (stereo not drawn),–,"inconclusive: 35.5 µM [inhibitor, single point]"
C=C1C(C)C2C(Cc3ccccc3)NC(=O)C23C(OC(C)=O)C=CC(C)(O)CC(C)CC=CC3C1O (stereo not drawn),–,active: 2.24 µM
COc1cc(NC(=O)c2ccc(-c3nc(COc4ccccc4)c(C)o3)cc2)cc(OC)c1,–,"inconclusive: 2.82 µM [inhibitor, full curve, poor fit]"
Cc1cc(C(=O)Cn2nc(C(=O)O)c3ccccc3c2=O)c(C)n1C1CC1,–,"inconclusive: 6.31 µM [inhibitor, single point]"
O=C(CN(C(=O)c1csnn1)c1cccc(Cl)c1)NC1CCCC1,inconclusive: 8.04% [activator],–
Clc1ccc(-c2cc(COc3ccccc3)on2)cc1,inactive: -6.96% [at 46.1 µM],–
O=C(Nc1ccc2[nH]ncc2c1)c1ccccc1Cl,–,"inconclusive: 7.08 µM [inhibitor, full curve, poor fit]"
CCCS(=O)(=O)C/C(N)=N/OC(=O)c1ccc(Cl)cc1,inactive: 0.725%,–
Cc1ccc(NC(=O)COC(=O)C2CC3C=CC2C3)cc1S(=O)(=O)N1CCCCC1 (stereo not drawn),–,"inconclusive: 31.6 µM [inhibitor, single point]"
COc1ccc(NC(=O)c2cc([N+](=O)[O-])ccc2N2CCCC2)cc1,–,"inconclusive: 35.5 µM [inhibitor, single point]"
CCOc1ccc(-n2ccn3c(CC(C)CC(=O)O)nnc3c2=O)cc1 (stereo not drawn),inactive: 14.1% [at 46.1 µM],–
COc1ccc(OC)c(C(=O)c2oc3ccccc3c2NC(C)=O)c1,inactive: -0.801%,–
COc1cc(C(=O)Nc2ccc3c(c2)N(C(=O)CN2CCN(C)CC2)c2ccccc2CC3)cc(OC)c1OC,–,"inconclusive: 5.62 µM [inhibitor, single point]"
COc1ccc2c(c1)c1c(c(=O)n(-c3ccc(C)cc3)c(=O)n1CC(=O)N1CCCC1)n2C,–,"inconclusive: 35.5 µM [activator, single point]"
O=C(Cc1ccccc1)Nc1scc(-c2ccccc2)c1C(=O)N1CCOCC1,–,"inconclusive: 18.3 µM [inhibitor, partial curve, poor fit]"
CCn1cc2nc(SCc3ccccc3Cl)n(CCc3ccccc3)c(=O)c2n1,–,"inconclusive: 12.6 µM [inhibitor, partial curve]"

SMILES,"activity change, negative = inhibition",Potency
Cc1c(NC(=O)C(C)OC(=O)c2cccc(S(=O)(=O)N(C)C)c2)c(=O)n(-c2ccccc2)n1C (stereo not drawn),–,"inconclusive: 31.6 µM [activator, single point]"
O=C1C(Nc2ccccc2)=C2CCCC=C2N1c1ccccc1,–,"inconclusive: 15.8 µM [inhibitor, single point]"
CCCCn1c(=O)[nH]c(=O)c2c1nc(-c1ccc(OC(F)F)c(OC)c1)n2C,–,"inconclusive: 20 µM [inhibitor, single point]"
O=C(Nc1nc(-c2cccc3ccccc23)cs1)c1cnccn1,–,"inconclusive: 6.51 µM [activator, partial curve, poor fit]"
CCCCN1Cc2ccccc2Oc2cc(Br)ccc2S1(=O)=O,–,"inconclusive: 2.5 µM [activator, partial curve, poor fit]"
CC1(C)C2CC=C(/C=N/NC(=S)Nc3cccnc3)C1C2 (stereo not drawn),inactive: -6.57%,–
CCc1ccc2[nH]c3nc(C)cc(C)c3c(=O)c2c1,–,"inconclusive: 2.51 µM [activator, partial curve, poor fit]"
CC(OC(=O)C1=COCCO1)C(=O)Nc1ccc(Oc2ccccc2)cc1 (stereo not drawn),–,"inconclusive: 5.62 µM [activator, partial curve, poor fit]"
Nc1c(C(=O)O)cnc2c(-c3ccc(Cl)cc3)cnn12,–,"inconclusive: 20 µM [inhibitor, single point]"
COc1cc(C(=O)NC2Cc3ccccc3C2)ccc1OC1CCN(C(C)=O)CC1,–,"inconclusive: 1.78 µM [inhibitor, partial curve, poor fit]"
CNCCCC1c2ccccc2C=Cc2ccccc21,–,"inconclusive: 29.1 µM [inhibitor, single point] and inconclusive: 58 nM [activator, full curve]"
O=C(CSc1ccc2nnc(CCNC(=O)c3ccccc3)n2n1)NCc1ccccc1,–,"inconclusive: 0.501 µM [activator, full curve, poor fit]"
COc1ccccc1N1CCN(C(=O)/C=C/c2c(Cl)nc3ccccn23)CC1,–,"inconclusive: 35.5 µM [inhibitor, single point]"
COc1cc(C2C(=O)N(C3CCCCCC3)CC(=O)N2CCC2=CCCCC2)ccc1OC(C)C (stereo not drawn),–,"inconclusive: 2 µM [activator, partial curve, poor fit]"
CCCN(CC(=O)Nc1cc(Cl)cc(Cl)c1)CC(=O)Nc1ccc(F)c(F)c1F,–,"inconclusive: 16.4 µM [inhibitor, single point]"
Cc1ccc(NC(=O)CCNS(=O)(=O)c2ccc(Br)s2)cc1,–,"inconclusive: 3.16 µM [inhibitor, single point]"
O=C(COc1ccc2ccccc2c1)N1CCN(C(=O)c2cccnc2)CC1,–,"inconclusive: 23.1 µM [inhibitor, partial curve, poor fit]"
CCOC(=O)C1CCCN(C(=O)c2cccc(NC(=O)c3nsc4ccccc34)c2)C1 (stereo not drawn),–,"inconclusive: 35.5 µM [inhibitor, single point]"
CCOCCCNC(=O)C1CCN(c2nn3cc(-c4ccc(F)cc4)nc3s2)CC1,–,"inconclusive: 2.82 µM [activator, full curve, poor fit]"
CCCNC(=S)Nc1ccc(Cl)cc1Cl,inactive: 7.24%,–
CCN(CC(=O)NCc1cccs1)S(=O)(=O)c1ccc(C(C)C)cc1,–,"inconclusive: 0.562 µM [inhibitor, partial curve, poor fit]"

# From PubChem BioAssay AID540256 (National Center for Advancing Translational Sciences (NCATS), 2011)
